In publication doi:10.1101/643114 one finds binding data, which are given here for three substances.

Protein sequences, listed by entry. Tags and fused reporters are not part of them.
UniProt Q9H6I2: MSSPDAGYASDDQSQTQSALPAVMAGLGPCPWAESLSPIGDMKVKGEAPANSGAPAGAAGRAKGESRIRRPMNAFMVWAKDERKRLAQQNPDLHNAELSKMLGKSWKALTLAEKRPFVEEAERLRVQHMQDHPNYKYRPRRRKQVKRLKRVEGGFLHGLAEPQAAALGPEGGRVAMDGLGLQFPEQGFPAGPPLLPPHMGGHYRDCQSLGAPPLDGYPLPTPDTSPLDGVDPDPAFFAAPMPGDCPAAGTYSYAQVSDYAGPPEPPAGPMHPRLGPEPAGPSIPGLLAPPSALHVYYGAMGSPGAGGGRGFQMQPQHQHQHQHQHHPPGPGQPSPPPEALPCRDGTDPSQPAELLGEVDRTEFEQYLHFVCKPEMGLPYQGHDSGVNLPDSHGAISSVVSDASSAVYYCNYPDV
UniProt P48431: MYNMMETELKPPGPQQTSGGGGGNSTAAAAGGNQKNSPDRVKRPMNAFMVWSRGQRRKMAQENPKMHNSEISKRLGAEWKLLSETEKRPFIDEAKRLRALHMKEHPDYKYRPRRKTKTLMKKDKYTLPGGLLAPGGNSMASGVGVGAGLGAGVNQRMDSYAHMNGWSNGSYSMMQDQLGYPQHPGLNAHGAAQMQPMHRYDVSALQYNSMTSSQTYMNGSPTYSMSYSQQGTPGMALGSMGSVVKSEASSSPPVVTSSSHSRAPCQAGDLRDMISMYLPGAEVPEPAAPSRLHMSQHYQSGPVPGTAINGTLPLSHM
UniProt Q9H9S0: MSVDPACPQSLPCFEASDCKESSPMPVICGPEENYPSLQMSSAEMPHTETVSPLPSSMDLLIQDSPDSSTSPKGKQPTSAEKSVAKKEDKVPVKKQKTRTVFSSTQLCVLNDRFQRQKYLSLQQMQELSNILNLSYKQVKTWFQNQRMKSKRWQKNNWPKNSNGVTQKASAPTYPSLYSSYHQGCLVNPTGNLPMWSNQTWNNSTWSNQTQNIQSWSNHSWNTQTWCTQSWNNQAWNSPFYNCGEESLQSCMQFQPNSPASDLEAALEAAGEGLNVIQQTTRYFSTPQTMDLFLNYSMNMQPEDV
UniProt Q01860: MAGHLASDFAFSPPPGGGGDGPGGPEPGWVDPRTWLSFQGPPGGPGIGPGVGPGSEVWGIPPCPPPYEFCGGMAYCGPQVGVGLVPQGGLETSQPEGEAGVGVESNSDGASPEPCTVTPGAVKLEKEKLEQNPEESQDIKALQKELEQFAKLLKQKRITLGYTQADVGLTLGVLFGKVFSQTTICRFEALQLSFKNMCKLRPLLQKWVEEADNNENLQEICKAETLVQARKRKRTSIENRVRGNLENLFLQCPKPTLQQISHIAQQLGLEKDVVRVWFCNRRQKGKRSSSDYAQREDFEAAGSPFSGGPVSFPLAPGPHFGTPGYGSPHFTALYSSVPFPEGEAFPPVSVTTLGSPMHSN

In test [1] the target is SOX17 (human (endogenous in TCam-2)) (UniProt Q9H6I2). In words: co-IP.
For test [2], the target named is SOX2 (human (endogenous in 2102EP)) (UniProt P48431). The experiment in a line: co-IP.

These are yes or no findings as the source states them, for the method shown. In cells and extracts the contact can be indirect. Some results given as binding are weak or reduced against the parent protein; the word gives no strength.

Take NANOG (from UniProt Q9H9S0 1-305): in test [1], the binding entry is “no binding”.
Regarding “OCT4 (2102EP cells) (from UniProt Q01860 1-360)”, the binding entry in test [2] is listed as “binds”.
Consider “OCT4 (TCam-2 cells) (from UniProt Q01860 1-360)”, for which the binding entry in test [1] is reported as “binds”.
